This assay addresses full-length Flag-TLE4 (UniProt Q62441). Nature of the assay: co-IP.

By UniProt entry, the sequences of proteins in these tests, tags left out.
UniProt Q62441: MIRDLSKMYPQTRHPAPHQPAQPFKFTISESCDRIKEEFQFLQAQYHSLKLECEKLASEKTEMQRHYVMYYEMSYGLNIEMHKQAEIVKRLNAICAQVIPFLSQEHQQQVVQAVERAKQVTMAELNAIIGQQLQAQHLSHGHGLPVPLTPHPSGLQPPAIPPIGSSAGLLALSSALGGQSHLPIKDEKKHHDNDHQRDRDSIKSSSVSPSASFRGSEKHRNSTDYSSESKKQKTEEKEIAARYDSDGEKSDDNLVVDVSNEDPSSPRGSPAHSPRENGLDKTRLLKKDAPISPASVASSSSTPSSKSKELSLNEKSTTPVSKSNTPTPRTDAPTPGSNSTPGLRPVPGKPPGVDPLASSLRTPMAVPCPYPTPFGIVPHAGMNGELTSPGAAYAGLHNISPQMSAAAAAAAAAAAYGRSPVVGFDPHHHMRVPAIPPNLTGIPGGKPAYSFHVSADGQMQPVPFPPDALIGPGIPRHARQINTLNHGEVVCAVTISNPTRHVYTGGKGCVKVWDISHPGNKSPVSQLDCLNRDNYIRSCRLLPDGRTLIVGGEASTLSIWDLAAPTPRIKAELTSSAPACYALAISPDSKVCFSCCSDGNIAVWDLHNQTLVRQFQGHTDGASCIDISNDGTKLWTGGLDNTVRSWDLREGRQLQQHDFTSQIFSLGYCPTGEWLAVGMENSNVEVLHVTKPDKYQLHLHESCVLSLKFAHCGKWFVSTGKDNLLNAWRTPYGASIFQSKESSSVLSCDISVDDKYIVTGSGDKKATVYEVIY
UniProt Q9ESP5: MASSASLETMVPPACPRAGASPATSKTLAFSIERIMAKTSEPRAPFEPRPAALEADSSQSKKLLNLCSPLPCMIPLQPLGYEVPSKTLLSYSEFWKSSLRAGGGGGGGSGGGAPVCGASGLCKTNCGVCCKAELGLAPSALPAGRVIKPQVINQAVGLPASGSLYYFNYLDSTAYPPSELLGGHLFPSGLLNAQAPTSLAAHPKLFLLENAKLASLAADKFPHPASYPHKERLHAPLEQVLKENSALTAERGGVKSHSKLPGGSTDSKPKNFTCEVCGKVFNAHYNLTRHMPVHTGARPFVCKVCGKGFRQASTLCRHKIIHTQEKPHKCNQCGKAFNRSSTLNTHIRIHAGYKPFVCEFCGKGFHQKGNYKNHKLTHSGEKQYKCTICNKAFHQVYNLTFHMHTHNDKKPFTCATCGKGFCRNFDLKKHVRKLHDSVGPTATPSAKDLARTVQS

No constants are given. Whether binding was seen depends on the method and setting. Binding seen in cells or lysates may run through a third protein. Some binding calls cover weakened binding; strength is not graded here.

The text below walks through data of doi:10.1101/2022.05.09.491192.

As for HA-FEZF2 (from UniProt Q9ESP5 1-455), the binding result is “binds”.
